Measured values from article PMC3762332.

Sequences of proteins named here, by UniProt entry; tags and fusion partners are left off. A change or cut given only in a name is not applied to a line headed by its entry.
UniProt Q8NC26: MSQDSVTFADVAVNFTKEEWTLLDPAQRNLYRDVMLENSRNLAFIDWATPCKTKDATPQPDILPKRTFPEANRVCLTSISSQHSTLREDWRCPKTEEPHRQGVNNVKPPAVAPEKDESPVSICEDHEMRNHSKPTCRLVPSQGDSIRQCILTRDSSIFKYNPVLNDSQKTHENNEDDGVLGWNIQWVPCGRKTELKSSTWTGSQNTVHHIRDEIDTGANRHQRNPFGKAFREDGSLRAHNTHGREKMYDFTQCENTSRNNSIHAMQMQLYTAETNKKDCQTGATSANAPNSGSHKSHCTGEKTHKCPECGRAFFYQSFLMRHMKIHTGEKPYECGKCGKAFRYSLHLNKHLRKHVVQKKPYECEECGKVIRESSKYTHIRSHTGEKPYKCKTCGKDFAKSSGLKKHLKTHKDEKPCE
UniProt P20719: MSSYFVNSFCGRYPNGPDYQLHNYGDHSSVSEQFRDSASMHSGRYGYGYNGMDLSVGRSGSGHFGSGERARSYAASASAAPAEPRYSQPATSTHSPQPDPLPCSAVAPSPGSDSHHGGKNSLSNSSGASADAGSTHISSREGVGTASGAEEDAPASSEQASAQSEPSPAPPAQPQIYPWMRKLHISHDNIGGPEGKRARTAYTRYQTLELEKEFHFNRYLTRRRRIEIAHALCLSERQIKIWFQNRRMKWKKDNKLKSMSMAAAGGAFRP
UniProt P43694: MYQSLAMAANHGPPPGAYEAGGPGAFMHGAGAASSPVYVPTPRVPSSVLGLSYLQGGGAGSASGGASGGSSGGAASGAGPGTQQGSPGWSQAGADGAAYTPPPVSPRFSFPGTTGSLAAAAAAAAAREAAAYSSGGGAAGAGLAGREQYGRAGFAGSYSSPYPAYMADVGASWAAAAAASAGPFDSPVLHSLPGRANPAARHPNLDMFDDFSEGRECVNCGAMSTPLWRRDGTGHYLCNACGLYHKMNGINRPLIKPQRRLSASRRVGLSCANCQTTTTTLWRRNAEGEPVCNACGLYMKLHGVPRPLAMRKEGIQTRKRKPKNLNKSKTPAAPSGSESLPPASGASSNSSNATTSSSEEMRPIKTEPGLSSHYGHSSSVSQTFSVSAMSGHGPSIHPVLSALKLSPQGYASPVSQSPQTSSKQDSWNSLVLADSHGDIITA
UniProt Q9BWM5: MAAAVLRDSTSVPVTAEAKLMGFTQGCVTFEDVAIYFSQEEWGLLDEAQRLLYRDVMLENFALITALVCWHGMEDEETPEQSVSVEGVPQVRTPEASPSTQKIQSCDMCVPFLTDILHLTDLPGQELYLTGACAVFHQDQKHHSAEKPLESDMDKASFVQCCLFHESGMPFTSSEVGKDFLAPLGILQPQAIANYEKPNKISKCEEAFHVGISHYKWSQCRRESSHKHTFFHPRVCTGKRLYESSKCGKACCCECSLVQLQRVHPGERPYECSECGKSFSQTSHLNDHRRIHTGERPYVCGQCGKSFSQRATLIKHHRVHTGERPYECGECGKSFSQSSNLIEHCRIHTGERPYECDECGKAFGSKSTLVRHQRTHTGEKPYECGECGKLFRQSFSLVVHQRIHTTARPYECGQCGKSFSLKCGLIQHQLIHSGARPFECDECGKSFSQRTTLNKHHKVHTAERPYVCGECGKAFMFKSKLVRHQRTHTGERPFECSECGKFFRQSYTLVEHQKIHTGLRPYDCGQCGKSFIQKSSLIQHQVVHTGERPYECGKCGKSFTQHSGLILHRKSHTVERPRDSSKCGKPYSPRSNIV
UniProt P19793: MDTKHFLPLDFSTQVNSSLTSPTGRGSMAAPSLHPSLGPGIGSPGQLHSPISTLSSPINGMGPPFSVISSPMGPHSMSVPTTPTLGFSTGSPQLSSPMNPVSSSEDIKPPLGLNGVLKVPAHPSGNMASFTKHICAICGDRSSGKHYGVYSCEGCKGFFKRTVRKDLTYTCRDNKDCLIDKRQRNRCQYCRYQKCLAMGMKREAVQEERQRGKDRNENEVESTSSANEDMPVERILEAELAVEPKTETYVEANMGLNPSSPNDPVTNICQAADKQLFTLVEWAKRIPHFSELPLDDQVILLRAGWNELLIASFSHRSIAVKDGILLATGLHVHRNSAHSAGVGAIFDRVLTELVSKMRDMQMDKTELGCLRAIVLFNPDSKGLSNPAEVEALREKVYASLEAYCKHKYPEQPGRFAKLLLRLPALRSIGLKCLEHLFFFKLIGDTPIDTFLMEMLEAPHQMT
UniProt O00716: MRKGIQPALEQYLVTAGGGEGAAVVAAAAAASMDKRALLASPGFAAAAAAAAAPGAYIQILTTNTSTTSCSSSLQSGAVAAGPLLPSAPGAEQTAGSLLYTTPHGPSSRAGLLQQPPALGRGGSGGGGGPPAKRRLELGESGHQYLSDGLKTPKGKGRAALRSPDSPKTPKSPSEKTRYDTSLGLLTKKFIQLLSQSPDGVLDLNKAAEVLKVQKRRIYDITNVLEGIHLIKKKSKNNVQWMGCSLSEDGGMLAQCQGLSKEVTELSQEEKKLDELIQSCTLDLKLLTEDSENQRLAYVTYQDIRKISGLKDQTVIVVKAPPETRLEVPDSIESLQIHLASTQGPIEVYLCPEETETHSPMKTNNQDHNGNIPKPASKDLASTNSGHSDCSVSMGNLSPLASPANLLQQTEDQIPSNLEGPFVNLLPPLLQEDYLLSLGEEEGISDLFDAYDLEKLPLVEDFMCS

What was measured:
Experiment in all cases: protein microarray
Conditions in all cases: 10-fold cold unmethylated competitor; 5mC at CpG (SssI, both strands); recombinant protein; protein details: GST (N-terminal); label: Cy5
[1] = target: T1, SMAD4 (Homo sapiens) (UniProt Q13485)
T1 sequence (looked up, limits assumed): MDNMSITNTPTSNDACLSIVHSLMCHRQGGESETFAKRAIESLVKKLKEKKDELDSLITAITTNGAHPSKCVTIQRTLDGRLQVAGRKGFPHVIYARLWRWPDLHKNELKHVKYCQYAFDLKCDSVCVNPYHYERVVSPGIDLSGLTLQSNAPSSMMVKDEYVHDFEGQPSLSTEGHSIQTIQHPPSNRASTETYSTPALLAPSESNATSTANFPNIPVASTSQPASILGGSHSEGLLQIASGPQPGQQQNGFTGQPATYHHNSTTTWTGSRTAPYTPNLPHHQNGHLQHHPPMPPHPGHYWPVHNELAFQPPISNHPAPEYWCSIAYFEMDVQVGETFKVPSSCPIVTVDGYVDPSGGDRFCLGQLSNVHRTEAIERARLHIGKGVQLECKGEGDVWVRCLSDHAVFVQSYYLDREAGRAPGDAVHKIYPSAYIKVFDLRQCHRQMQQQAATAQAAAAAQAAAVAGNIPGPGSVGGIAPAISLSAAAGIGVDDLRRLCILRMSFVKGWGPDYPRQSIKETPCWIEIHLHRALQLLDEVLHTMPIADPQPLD

[2] = target: ZNF114 (Homo sapiens) (UniProt Q8NC26)
[3] = target: HOXA5 (Homo sapiens) (UniProt P20719)
[4] = target: GATA4 (Homo sapiens) (UniProt P43694)
[5] = target: ZNF416 (Homo sapiens) (UniProt Q9BWM5)
[6] = target: RXRA (Homo sapiens) (UniProt P19793)
[7] = target: E2F3 (Homo sapiens) (UniProt O00716)
[8] = target: T2, SCAPER (Homo sapiens) (UniProt Q9BY12)
T2 sequence (looked up, limits assumed): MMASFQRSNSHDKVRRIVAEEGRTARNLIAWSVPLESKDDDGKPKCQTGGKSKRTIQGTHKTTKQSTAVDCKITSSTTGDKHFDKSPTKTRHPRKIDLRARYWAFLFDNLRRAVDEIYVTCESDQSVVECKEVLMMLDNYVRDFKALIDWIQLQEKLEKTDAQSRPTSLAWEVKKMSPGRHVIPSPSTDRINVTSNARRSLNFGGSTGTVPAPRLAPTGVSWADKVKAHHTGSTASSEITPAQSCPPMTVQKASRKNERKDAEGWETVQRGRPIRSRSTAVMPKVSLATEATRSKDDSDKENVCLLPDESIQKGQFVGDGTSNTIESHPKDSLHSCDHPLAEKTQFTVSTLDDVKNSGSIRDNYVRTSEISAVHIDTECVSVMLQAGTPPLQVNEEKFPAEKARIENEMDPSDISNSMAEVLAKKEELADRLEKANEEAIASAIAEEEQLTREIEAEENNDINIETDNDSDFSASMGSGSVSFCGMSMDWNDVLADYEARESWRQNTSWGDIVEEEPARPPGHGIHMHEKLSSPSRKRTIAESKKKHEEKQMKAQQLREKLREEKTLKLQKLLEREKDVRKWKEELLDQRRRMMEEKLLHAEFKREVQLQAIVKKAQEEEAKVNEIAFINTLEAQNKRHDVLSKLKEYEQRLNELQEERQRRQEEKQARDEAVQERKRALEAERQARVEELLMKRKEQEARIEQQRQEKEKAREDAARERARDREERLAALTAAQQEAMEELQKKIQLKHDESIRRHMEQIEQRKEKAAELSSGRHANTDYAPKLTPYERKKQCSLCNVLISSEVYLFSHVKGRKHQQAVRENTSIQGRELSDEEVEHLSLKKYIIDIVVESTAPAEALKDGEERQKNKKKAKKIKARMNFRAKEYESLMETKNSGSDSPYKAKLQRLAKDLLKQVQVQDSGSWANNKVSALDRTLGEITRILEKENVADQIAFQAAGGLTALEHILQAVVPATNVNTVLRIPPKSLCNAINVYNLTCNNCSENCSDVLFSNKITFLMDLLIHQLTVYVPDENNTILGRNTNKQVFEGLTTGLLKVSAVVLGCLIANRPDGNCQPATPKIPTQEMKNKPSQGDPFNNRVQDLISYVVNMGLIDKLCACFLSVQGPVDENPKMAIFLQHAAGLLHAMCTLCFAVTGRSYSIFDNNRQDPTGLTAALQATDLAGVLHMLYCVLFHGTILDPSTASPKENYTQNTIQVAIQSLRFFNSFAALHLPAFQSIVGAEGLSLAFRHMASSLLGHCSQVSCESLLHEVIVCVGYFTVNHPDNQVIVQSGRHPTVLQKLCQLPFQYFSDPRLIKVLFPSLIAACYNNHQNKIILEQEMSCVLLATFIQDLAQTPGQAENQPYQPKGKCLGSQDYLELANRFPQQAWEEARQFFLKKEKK

[9] = target: T3, ZCCHC7 (Homo sapiens) (UniProt Q8N3Z6)
T3 sequence (looked up, limits assumed): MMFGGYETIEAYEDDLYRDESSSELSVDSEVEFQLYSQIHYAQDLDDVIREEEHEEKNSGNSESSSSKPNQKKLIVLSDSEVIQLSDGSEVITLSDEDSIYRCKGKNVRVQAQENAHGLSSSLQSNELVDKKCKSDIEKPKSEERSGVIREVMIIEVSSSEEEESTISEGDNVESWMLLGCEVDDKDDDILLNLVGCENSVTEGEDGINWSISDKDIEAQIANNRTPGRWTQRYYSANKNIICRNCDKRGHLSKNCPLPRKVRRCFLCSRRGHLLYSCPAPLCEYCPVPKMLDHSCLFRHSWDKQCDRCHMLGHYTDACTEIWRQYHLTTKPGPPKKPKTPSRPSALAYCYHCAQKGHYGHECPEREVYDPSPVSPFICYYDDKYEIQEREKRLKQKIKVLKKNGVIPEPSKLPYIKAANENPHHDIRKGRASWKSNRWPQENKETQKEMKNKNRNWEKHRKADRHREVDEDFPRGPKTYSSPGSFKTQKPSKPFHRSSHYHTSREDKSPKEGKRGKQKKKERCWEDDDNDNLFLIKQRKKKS

Measured: binding result

ACGTCAGAAAACGTCAGCCCTATAGTGAGTGCTATTA (double strand) [M303]
binds: [1] | [2] | [3] | [4] | [5] | [6] | [7] | [8] | [9]

ACGTGGGTTTACGTGGGCCCTATAGTGAGTGCTATTA (double strand) [M327]
binds: [1] | [2] | [3] | [4] | [5] | [6] | [7] | [8] | [9]

AGGCCGCTTTAGGCCGCCCCTATAGTGAGTGCTATTA (double strand) [M304]
binds: [1] | [2] | [3] | [4] | [5] | [6] | [7] | [8] | [9]

CATCCGGGAAACATCCGGGCCCTATAGTGAGTGCTATTA (double strand) [M322]
binds: [1] | [2] | [3] | [4] | [5] | [6] | [7] | [8] | [9]

CCGGAACTTTCCGGAACCCCTATAGTGAGTGCTATTA (double strand) [M318]
binds: [1] | [2] | [3] | [4] | [5] | [6] | [7] | [8] | [9]

CCGGAGCAAACCGGAGCCCCTATAGTGAGTGCTATTA (double strand) [M301]
binds: [1] | [2] | [3] | [4] | [5] | [6] | [7] | [8] | [9]

CGCTGCCAAACGCTGCCCCCTATAGTGAGTGCTATTA (double strand) [M305]
binds: [1] | [2] | [3] | [4] | [5] | [6] | [7] | [8] | [9]

CGCTTCCAAACGCTTCCCCCTATAGTGAGTGCTATTA (double strand) [M319]
binds: [1] | [2] | [3] | [4] | [5] | [6] | [7] | [8] | [9]

CGGATGTAAACGGATGTCCCTATAGTGAGTGCTATTA (double strand) [M27]
binds: [1] | [2] | [3] | [4] | [5] | [6] | [7] | [8] | [9]

CTGCCGCAAACTGCCGCCCCTATAGTGAGTGCTATTA (double strand) [M95]
binds: [1] | [2] | [3] | [4] | [5] | [6] | [7] | [8] | [9]

GTCACGCCCAAAGTCACGCCCCCCTATAGTGAGTGCTATTA (double strand) [M213]
binds: [2] | [3] | [4] | [5] | [6] | [7] | [8] | [9]

TGTTCCGATTTTGTTCCGACCCTATAGTGAGTGCTATTA (double strand) [M447]
binds: [1] | [2] | [3] | [4] | [5] | [6] | [7] | [8] | [9]

The exact form of at least one protein or probe is not confirmed. For some assays here: Protein sequences can lack the tags named with them.
